PubChem BioAssay AID602196 | INSERM, 2012

Aim: 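Modifiers of cisplatin sensitivity in A549 cells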
System: human A549 lung cancer cells
Knock-down reagent: siRNA pair against human genes
Duration: 48 h transfection before cisplatin; time from cisplatin to read-out not stated
Challenge: cisplatin at a dose killing half of control-siRNA cells; exact dose and duration not given
Measured: 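Cisplatin cell death as a shift from the 50% death seen with control siRNA; siRNAs toxic or growth-blocking alone scored 0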
Reading the numbers: two-siRNA summed score (-2 to +2): higher = both siRNAs protect from cisplatin killing; -2 means both sensitise; mean protection from cisplatin (shift in death) and protection from cisplatin (shift in death), siRNA C and protection from cisplatin (shift in death), siRNA D: higher = protection from cisplatin killing
Hit rule: 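Each siRNA scores 0 if harmful alone by LDH or WST-1, otherwise +1 if it reduces and -1 if it increases cisplatin killing; a gene is active when both siRNAs agree (sum +2 or -2)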
Meaning of the calls: active = both siRNAs shift cisplatin killing the same way; inactive = no consistent shift, or siRNA harmful alone
The whole screen tested about 23,000 reagents; this is an unselected part. In the full data, 455 (2%) were called active. 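Active includes both protection and sensitisation; some change values fall well beyond the stated -50 to +50 range.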 Not given: the amount of reagent.

| target | two-siRNA summed score (-2 to +2) | mean protection from cisplatin (shift in death) (%) | protection from cisplatin (shift in death), siRNA C (%) | protection from cisplatin (shift in death), siRNA D (%) | activity call |
| --- | --- | --- | --- | --- | --- |
| MAN2B2 | 0 | 2.3 | 24.7 | -20.1 | inactive |
| PIGW | -1 | -4.1 | -14.4 | 6.2 | inactive |
| MICU3 | 0 | 8.8 | 10.7 | 6.9 | inactive |
| PICALM | 0 | 4.2 | 2.1 | 6.3 | inactive |
| LOC342357 | 0 | 17.4 | 23.6 | 11.1 | inactive |
| ATP6V1H | 0 | -7.2 | -7 | -7.4 | inactive |
| ARHGAP42 | 0 | -0.1 | 11 | -11.3 | inactive |
| RPS19 | 0 | 15.1 | 11.8 | 18.4 | inactive |
| LOC390378 | 0 | 16.9 | 25.4 | 8.5 | inactive |
| LY6H | -1 | -4.7 | 3.7 | -13.1 | inactive |
| SLC35F3 | 0 | 6.5 | 1.5 | 11.4 | inactive |
| EFR3A | 0 | 3.1 | 1.2 | 4.9 | inactive |
| KIAA1328 | 0 | 1.7 | 4.9 | -1.4 | inactive |
| AGBL5 | 0 | -4.4 | -9.8 | 1 | inactive |
| SCNN1B | 1 | 18.6 | 11.2 | 25.9 | inactive |
| ARMC10 | -1 | -8.6 | -15.3 | -1.9 | inactive |
| LOC442148 | 0 | 12.8 | 24 | 1.6 | inactive |
| IGSF8 | 0 | -2.5 | 6.6 | -11.6 | inactive |
| CCL21 | -1 | -10.1 | -4 | -16.2 | inactive |
| LOC92659 | 0 | -1.4 | 3.4 | -6.2 | inactive |
| LOC442120 | 0 | -4.3 | -3.5 | -5.1 | inactive |
| SLC2A10 | 0 | 1.1 | -6.1 | 8.4 | inactive |
| BRPF1 | 0 | 4.2 | 24.4 | -16 | inactive |
| TADA3 | 0 | 8.2 | 16.3 | 0 | inactive |
| ADAMTS1 | 0 | 10.1 | 13.9 | 6.4 | inactive |
| STYX | 0 | 9.3 | 11.6 | 7 | inactive |
| PPIAP35 | 1 | 10.2 | 20.4 | 0 | inactive |
| C7orf25 | 0 | 0.2 | -1.5 | 2 | inactive |
| MLF2 | 0 | 14.3 | -2.5 | 31.1 | inactive |
| PPEF1 | 0 | 2 | 6.7 | -2.7 | inactive |
| MRGBP | 0 | -2.7 | 0.7 | -6.2 | inactive |
| PPIL4 | 0 | 8.6 | 9 | 8.2 | inactive |
| EEIG1 | 0 | 12.3 | 11.8 | 12.7 | inactive |
| IFNA10 | -1 | 6.9 | 28.3 | -14.6 | inactive |
| RRAGB | 2 | 18 | 22.8 | 13.2 | active |
| NEK9 | 0 | -4.8 | -4.6 | -5 | inactive |
| MBNL1 | -1 | -4.7 | 9.7 | -19.1 | inactive |
| LINC01138 | 0 | 12 | 8.2 | 15.8 | inactive |
| LOC441404 | 0 | 5.1 | 3.7 | 6.4 | inactive |

Records listed so far marked active (1):
| target | two-siRNA summed score (-2 to +2) | mean protection from cisplatin (shift in death) (%) | protection from cisplatin (shift in death), siRNA C (%) | protection from cisplatin (shift in death), siRNA D (%) | activity call |
| --- | --- | --- | --- | --- | --- |
| RRAGB | 2 | 18 | 22.8 | 13.2 | active |
